Reference: patent US10124076B2, “Imaging agents and methods of use thereof” (Huntington Medical Research Institutes, priority 2007, dated 2018)

Assay: Hyperpolarized 13C imaging at 1.5 T of syringes, concentration titration against 4.25 M 1-13C acetate phantom

## CCC(=O)OCCO [^13C hydroxyethyl propionate, hydroxyethyl propionate]
0.64 mM reagent equivalent to 4.25 M 13C reference phantom, 1.5 T
  signal enhancement: over 6,000 times
1.5 T system, FIESTA pulse sequence (Example 1 text)
  lowest detectable concentration of hyperpolarized reagent: 0.0001 µM
1.5 T, 3 ml syringes, surface coil (FIG. 5 legend)
  lowest detectable concentration of hyperpolarized reagent: 100 µM
